Reference: paper PMC6494845 (Scientific Reports, 2019)

Assay: Optical imaging, in vivo and ex vivo
Parameters: species or system Balb/C nude mice
Conditions: 2 mg/kg i.v.

SMILES: CN(C)c1ccc(/C=C/C2=[O+][B-](F)(F)OC(/C=C/c3ccc(OCCOCCF)cc3)=C2)cc1 [Ligand 2, BF2 complex of 4′-dimethylamino-4″-(2-(2-fluoroethoxy)ethoxy)curcuminoid]
- ex vivo fluorescence signals in muscle, kidney, intestines and liver (2 min after injection): moderate to strong fluorescence signals
- change of ex vivo fluorescence signals in muscle, kidney, intestines and liver (within 30 min): decreased to the background level
- fluorescence signal in mouse brain (in vivo, 2 min after injection, ex 570 nm / em 660 nm): Moderate fluorescence signal intensity
- change of fluorescence signal in mouse brain (in vivo, within 30 min): significantly decreased
